Experimental data: PubChem BioAssay AID652259 (Drosophila RNAi Screening Center, 2013)
Screen: 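Knock-downs that push a Wingless-driven reporter up or down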 (primary screen). Cells: Drosophila clone 8 imaginal disc epithelial cells. Reagent: long dsRNA against Drosophila genes. Challenge: pathway stimulated by co-transfected Wingless expression plasmid. Detection: 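Firefly luciferase from a tcf-site Wingless reporter, measured alongside co-transfected Renilla luciferase that tracks transfection; pathway stimulated by a Wingless plasmid; the firefly-to-Renilla ratio is not deposited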. Direction: firefly reporter light: higher = more Wg reporter light, before normalisation; Renilla control light: higher = more transfected or surviving cells. Call rule: 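Strong candidates differ from their plate mean by at least two out of four per-plate statistical tests; weak candidates meet just one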. Meaning of the calls: active = candidate regulator (raises or lowers reporter); inactive = not a candidate.
The deposit covers about 22,000 reagents; shown is a random part of those with a known target gene and a result. In the full data, 233 (1.1%) are marked active. 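Light values are raw, unnormalised plate reads; the ratio scores behind the reporter calls were not deposited.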 Names joined by + are all predicted targets of the reagent. Not stated in the record: the amount of reagent, the time to read-out, the dose of the treatment.

no.	gene	amplicon	firefly reporter light, replicate 1	firefly reporter light, replicate 2	Renilla control light, replicate 1	Renilla control light, replicate 2	Outcome
1	CG6179	DRSC19973	26896		11228		inactive
2	CG11398	DRSC18625	16632		9849		inactive
3	CG3513	DRSC00608	3520	6535	1351	3292	inactive
4	Ir56b (Ionotropic receptor 56b)	DRSC06543	6171		2093		inactive
5	Syt1 (Synaptotagmin 1)	DRSC00156	21530		9664		inactive
6	Syt1 (Synaptotagmin 1)	DRSC00157	20266	6.00e5	10949	2.22e5	inactive
7	Syt1 (Synaptotagmin 1)	DRSC00158	14125		6791		inactive
8	Syt1 (Synaptotagmin 1)	DRSC00840	14213		5576		inactive
9	Syt1 (Synaptotagmin 1)	DRSC22077	8.28e5	8.34e5	4.07e5	4.37e5	inactive
10	CG15514	DRSC15053	2508	8535	972	2996	inactive
11	IKKepsilon (I-kappaB kinase epsilon)	DRSC03550	2166	5388	683	2557	inactive
12	Ccdc58 + CG34116	DRSC10105	10113		3882		inactive
13	mtg (mind the gap)	DRSC16256	18373		4864		inactive
14	ana (anachronism)	DRSC07579	15036		3877		inactive
15	CG5906	DRSC10557	5339		2172		inactive
16	Nlg4 (Neuroligin 4)	DRSC15108	24048		5852		inactive
17	Nlg4 (Neuroligin 4)	DRSC15109	17712		3640		inactive
18	Nlg4 (Neuroligin 4)	DRSC15700	15187		3494		inactive
19	Nlg4 (Neuroligin 4)	DRSC15701	14954		1431		inactive
20	Nlg4 (Neuroligin 4)	DRSC22243	5.00e5	4.15e5	2.30e5	2.05e5	inactive
21	ninaG	DRSC16102	13590		3632		inactive
22	CG3552	DRSC10370	7322		2915		inactive
23	Muc30E (Mucin 30E)	DRSC01101	22780		11185		inactive
24	Ns1 (Nucleostemin 1)	DRSC15529	8370		1901		inactive
25	CG17233	DRSC10259	7863		2074		inactive
26	CG16957	DRSC02545	2918	5149	1248	2327	inactive
27	CG12065	DRSC17798	2784	3570	749	1568	inactive
28	CG12065	DRSC17799	22358		10827		inactive
29	Adsl (Adenylosuccinate lyase)	DRSC15500	2721	8439	1197	2144	inactive
30	ACOX1 (acyl-CoA oxidase 1)	DRSC05941	8616		4648		inactive
31	Grik	DRSC15846	2160	5238	1195	1659	inactive
32	Grik	DRSC15847	12851		2669		inactive
33	yin	DRSC18854	4118	10133	1616	3453	inactive
34	yin	DRSC21889	5.98e5	6.68e5	2.46e5	2.92e5	inactive
35	CG12194	DRSC00345	2108	6672	976	2224	inactive
36	inaF-B	DRSC18903	2247		855		inactive
37	Nepl21 (Neprilysin-like 21)	DRSC14133	2269	3589	1976	855	inactive
38	CG13067	DRSC09950	9617		3830		inactive
39	CG42514	DRSC10428	3484		1040		inactive
40	CG14384	DRSC14842	14800		2113		inactive
41	CG3008	DRSC00560	2180	3868	890	843	inactive
42	Cds (CDP-diacylglycerol synthase)	DRSC10938	6375		2760		inactive
43	Vap33 (VAMP-associated protein 33kDa)	DRSC18384	4048	9095	2042	2977	inactive
44	dpr8 (defective proboscis extension response 8)	DRSC19406	14208		7497		inactive
45	dpr8 (defective proboscis extension response 8)	DRSC19600	20688		9376		inactive
46	dpr8 (defective proboscis extension response 8)	DRSC19938	19834		9286		inactive
47	dpr8 (defective proboscis extension response 8)	DRSC19939	21910		9760		inactive
48	CG7381	DRSC16238	11088		3147		inactive
49	Osi8 (Osiris 8)	DRSC12277	13616		4749		inactive

Only “firefly reporter light, replicate 1” (3 entries from above):
CG12194 [DRSC00345]	2108
inaF-B [DRSC18903]	2247
Nepl21 (Neprilysin-like 21) [DRSC14133]	2269
